{
  "sequences": {"note": "Amino acid sequences for entries named in this document (tags omitted). A change or cut given only in a name is not applied to a line headed by its entry.", "UniProt O00391": "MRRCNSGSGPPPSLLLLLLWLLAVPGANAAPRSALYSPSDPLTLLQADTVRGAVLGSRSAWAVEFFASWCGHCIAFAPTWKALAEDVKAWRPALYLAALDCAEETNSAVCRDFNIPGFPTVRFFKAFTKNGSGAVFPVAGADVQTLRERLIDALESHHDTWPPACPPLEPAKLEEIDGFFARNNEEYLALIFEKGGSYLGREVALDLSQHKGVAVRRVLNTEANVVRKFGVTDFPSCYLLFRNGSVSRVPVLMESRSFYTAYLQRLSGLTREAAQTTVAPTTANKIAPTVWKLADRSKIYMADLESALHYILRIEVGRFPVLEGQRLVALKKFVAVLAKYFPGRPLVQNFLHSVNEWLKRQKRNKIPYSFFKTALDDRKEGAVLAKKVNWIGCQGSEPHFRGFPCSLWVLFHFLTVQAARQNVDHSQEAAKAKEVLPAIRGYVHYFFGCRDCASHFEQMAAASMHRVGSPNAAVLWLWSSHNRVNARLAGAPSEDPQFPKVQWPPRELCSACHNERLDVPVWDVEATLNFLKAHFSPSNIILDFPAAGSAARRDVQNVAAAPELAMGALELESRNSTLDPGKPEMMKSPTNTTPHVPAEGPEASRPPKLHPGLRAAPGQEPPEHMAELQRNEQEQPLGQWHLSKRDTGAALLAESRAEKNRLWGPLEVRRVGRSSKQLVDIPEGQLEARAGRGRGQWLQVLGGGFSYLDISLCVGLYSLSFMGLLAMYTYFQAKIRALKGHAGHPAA"},
  "source": "PubChem BioAssay AID1347421",
  "about": "(Sanford-Burnham Center for Chemical Genomics, 2020)",
  "note": "Whole data set: some 1,500 compounds, median “activity” near 2, cut for the lowest 2% near -18. The list shows a part of the results. Active and inactive are the calls of the source.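 The calls were made as follows: active = inhibition of at least 40% at 10 µM; inconclusive = no clear call, values can overlap the other calls; inactive = the rest.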",
  "data": [
    {"molecular_target": "Sulfhydryl oxidase 1 (Homo sapiens) (UniProt O00391)", "assay": "QSOX1 enzyme inhibitors, confirmation, biochemical, ROS-Glo luminescence, single concentration (AID 1347421);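 also: 0% = DMSO wells with enzyme and 100% = wells lacking QSOX1 enzyme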", "conditions": "recombinant hQSOX1, RNase A substrate, ROS-Glo H2O2 luminescence; at 10 µM", "values": [
      {"smiles": "COc1cc(CN2CCCC(C(=O)c3ccc(SC)cc3)C2)ccc1O", "note": "(stereo not drawn)", "activity": "1.2%"},
      {"smiles": "O=C(c1cccc2ccccc12)C1CCCN(C2CCC2)C1", "note": "(stereo not drawn)", "activity": "inactive: -1.4%"},
      {"smiles": "O=C(Cc1cccnc1)N1CCCC(N2CCN(Cc3ccc4c(c3)OCO4)CC2)C1", "note": "(stereo not drawn)", "activity": "26.5%"},
      {"smiles": "O=C(c1ccc(Cl)cc1)C1CCCN(Cc2cccnc2)C1", "note": "(stereo not drawn)", "activity": "1.9%"},
      {"smiles": "COc1cccc(C2(C#N)CCN(C)CC2)c1", "activity": "3.7%"},
      {"smiles": "CN1CCC(N2CCCC(NC(=O)C3(c4ccccc4)CCN(C)CC3)C2)CC1", "note": "(stereo not drawn)", "activity": "2.2%"},
      {"smiles": "Cc1ncc(CN2CCCC(C(=O)c3ccc(C(F)(F)F)cc3)C2)s1", "note": "(stereo not drawn)", "activity": "inactive: -4.1%"},
      {"smiles": "O=C(NCCC1=CCCCC1)c1cn(CC2CCCO2)nn1", "note": "(stereo not drawn)", "activity": "inactive: -2.1%"},
      {"smiles": "O=C1N(Cc2cccnc2)CCCC12CCN(C1CCSCC1)C2", "note": "(stereo not drawn)", "activity": "8.7%"},
      {"smiles": "CN1CCC(N2CCCC(NC(=O)C3C(C)(C)C3(C)C)C2)CC1", "note": "(stereo not drawn)", "activity": "1%"},
      {"smiles": "CN(C(=O)Cc1cccnc1)C1CCCN(CCCc2ccccc2)C1", "note": "(stereo not drawn)", "activity": "inactive: -1.6%"},
      {"smiles": "COc1ccc(F)cc1C(=O)C1CCCN(Cc2cnc(SC)nc2)C1", "note": "(stereo not drawn)", "activity": "inactive: -2.5%"},
      {"smiles": "Cc1nn(Cc2ccccc2)cc1C(=O)O", "activity": "inactive: -14.1%"},
      {"smiles": "CN(C(=O)Cc1ccn(C)c1)C1CCCN(C2Cc3ccccc3C2)C1", "note": "(stereo not drawn)", "activity": "2.3%"},
      {"smiles": "CC(C)(C)CN1CCN(Cc2ccc(F)cc2Cl)CC1CCO", "note": "(stereo not drawn)", "activity": "2%"},
      {"smiles": "O=C(c1cccnc1)C1CCCN(Cc2nc(-c3ccccn3)no2)C1", "note": "(stereo not drawn)", "activity": "3.7%"},
      {"smiles": "COC1=[C+]C=C(CCN)c2ccccc21", "activity": "inactive: -9.6%"},
      {"smiles": "O=C(C(=O)N1CCOCC1)c1cn(Cc2ccccc2)c2ccccc12", "activity": "inactive: -2.7%"}
    ]}
  ]
}
